Assay results: publication PMC7862700
The entries are a selection whose mix differs from that of the whole data set. At the low end of the ranking the order means little.

By UniProt entry, the sequences of proteins in these tests, tags left out. Where a name states a change or a piece, a line headed by the entry shows the natural chain unless it says otherwise.
UniProt Q9Y603: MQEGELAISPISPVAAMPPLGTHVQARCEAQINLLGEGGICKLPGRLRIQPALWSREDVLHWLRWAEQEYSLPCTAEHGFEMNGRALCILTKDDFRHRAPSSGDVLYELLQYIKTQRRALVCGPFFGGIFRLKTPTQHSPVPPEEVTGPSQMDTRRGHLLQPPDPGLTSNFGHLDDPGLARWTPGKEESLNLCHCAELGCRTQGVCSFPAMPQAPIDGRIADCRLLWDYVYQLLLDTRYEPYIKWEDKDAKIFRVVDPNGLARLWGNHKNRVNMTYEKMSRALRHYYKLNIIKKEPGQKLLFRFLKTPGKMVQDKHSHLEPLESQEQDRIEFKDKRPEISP

The sequences below were run against ETV7 (UniProt Q9Y603) (assay: DAPPL (digital affinity profiling via proximity ligation, sequencing)). Details: 10 mM Tris-HCl pH 7.5, 50 mM NaCl, 1 mM DTT, 4% glycerol, room temperature, 30 min; GST-TFs on glutathione beads, 16-mer random dsDNA library, 0.1% …; high values mean tight binding; double strand, one strand shown; scale: fold enrichment (6-mer frequency, TF over GST control).

Row | Sequence | binding signal
1 | TGCCCC | 1.18
2 | CCCTCT | 1.27
3 | ATATAT | 1.29
4 | ATGGCA | 1.24
5 | CTACTG | 1.26
6 | TTTCGG | 1.28
7 | TAAAGG | 1.09
8 | CTATAG | 0.988
9 | TTCATG | 1.35
10 | ATGCCT | 1.26
11 | GCTAGC | 1.24
12 | ATACTT | 1.69
13 | AAACAG | 1.04
14 | CAATTA | 1.15
15 | ATTAGG | 1.15
16 | TTAATA | 1.23
17 | ATCCAC | 1.18
18 | CCTGAC | 1.46
19 | TCAAGT | 1.03
20 | ATCTGG | 1.14

Row | Sequence | binding signal
21 | GTTTAT | 1.19
22 | CTCCAC | 1.39
23 | ACCCGG | 1.55
24 | CACCGG | 0.936
25 | AACTCC | 1.31
26 | GCCCAC | 0.979
27 | TCGCCG | 0.984
28 | CACCTG | 0.998
29 | TGCTCG | 1.18
30 | ACCCTT | 1.1
31 | ATGTAG | 0.934
32 | AGAATA | 1.08
33 | TATCAC | 1.14
34 | TATCGC | 1
35 | TTTTAT | 1.34
36 | TAGCTT | 1.16
37 | CTAACA | 1.16
38 | CGTAGC | 1.09
39 | CTCCGA | 1.24
40 | TCAGCC | 0.886

Part of the list above, in CSV form.
Row,Sequence,binding signal
1,TGCCCC,1.18
2,CCCTCT,1.27
